The other results are listed elsewhere or left out.
Compound: CC1Cc2ccccc2N1C(=O)C1CCCN(C1)C(=O)CCl (mixture of isomers) [TRIM25 ligand 11 (diastereomer mixture)]
Assay: probe-labelled cysteine peptide fold change vs DMSO (competition) (log2 fold change); higher = less target engagement (more negative = stronger competition)
Conditions: THP-1, incubation time: 4 h
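Note: competitive chemoproteomic profiling in live THP-1 cells with an iodoacetamide desthiobiotin (IA-DTB) probe, comparing probe-labelled peptide intensities in compound-treated cells against DMSO-treated controls.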

Sequences of proteins named here, by UniProt entry; tags and fusion partners are left off. A change or cut given only in a name is not applied to a line headed by its entry.
UniProt Q9H0W9: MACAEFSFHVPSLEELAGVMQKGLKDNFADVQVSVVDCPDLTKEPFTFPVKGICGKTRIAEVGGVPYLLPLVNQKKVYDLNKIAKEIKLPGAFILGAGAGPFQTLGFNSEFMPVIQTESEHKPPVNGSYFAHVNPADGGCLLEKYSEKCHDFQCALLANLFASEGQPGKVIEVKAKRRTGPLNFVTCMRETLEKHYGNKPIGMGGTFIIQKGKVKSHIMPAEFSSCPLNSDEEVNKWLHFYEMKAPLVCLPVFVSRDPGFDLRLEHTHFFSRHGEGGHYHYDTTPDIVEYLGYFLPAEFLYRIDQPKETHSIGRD
UniProt Q6PJG6: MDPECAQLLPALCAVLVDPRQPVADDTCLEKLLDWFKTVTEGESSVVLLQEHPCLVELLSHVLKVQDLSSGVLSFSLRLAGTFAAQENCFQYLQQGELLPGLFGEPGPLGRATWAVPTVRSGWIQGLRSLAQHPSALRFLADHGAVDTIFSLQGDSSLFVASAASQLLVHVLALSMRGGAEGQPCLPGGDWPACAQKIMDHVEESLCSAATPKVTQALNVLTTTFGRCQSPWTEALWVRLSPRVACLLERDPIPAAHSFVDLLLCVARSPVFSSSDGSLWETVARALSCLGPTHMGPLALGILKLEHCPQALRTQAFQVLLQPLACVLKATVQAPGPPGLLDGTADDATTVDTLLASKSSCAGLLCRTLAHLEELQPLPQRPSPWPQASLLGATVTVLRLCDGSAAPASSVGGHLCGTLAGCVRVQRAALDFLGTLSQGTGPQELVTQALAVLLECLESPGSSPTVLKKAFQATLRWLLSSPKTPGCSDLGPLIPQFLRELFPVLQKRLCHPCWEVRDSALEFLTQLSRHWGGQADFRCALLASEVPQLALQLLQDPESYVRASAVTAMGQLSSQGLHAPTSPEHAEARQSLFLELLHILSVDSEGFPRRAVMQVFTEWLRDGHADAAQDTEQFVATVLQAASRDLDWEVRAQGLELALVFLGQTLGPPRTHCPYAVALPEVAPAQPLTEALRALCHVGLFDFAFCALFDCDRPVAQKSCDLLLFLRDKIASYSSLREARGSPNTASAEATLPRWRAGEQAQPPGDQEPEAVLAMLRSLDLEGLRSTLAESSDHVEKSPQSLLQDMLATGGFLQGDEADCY
UniProt O14981: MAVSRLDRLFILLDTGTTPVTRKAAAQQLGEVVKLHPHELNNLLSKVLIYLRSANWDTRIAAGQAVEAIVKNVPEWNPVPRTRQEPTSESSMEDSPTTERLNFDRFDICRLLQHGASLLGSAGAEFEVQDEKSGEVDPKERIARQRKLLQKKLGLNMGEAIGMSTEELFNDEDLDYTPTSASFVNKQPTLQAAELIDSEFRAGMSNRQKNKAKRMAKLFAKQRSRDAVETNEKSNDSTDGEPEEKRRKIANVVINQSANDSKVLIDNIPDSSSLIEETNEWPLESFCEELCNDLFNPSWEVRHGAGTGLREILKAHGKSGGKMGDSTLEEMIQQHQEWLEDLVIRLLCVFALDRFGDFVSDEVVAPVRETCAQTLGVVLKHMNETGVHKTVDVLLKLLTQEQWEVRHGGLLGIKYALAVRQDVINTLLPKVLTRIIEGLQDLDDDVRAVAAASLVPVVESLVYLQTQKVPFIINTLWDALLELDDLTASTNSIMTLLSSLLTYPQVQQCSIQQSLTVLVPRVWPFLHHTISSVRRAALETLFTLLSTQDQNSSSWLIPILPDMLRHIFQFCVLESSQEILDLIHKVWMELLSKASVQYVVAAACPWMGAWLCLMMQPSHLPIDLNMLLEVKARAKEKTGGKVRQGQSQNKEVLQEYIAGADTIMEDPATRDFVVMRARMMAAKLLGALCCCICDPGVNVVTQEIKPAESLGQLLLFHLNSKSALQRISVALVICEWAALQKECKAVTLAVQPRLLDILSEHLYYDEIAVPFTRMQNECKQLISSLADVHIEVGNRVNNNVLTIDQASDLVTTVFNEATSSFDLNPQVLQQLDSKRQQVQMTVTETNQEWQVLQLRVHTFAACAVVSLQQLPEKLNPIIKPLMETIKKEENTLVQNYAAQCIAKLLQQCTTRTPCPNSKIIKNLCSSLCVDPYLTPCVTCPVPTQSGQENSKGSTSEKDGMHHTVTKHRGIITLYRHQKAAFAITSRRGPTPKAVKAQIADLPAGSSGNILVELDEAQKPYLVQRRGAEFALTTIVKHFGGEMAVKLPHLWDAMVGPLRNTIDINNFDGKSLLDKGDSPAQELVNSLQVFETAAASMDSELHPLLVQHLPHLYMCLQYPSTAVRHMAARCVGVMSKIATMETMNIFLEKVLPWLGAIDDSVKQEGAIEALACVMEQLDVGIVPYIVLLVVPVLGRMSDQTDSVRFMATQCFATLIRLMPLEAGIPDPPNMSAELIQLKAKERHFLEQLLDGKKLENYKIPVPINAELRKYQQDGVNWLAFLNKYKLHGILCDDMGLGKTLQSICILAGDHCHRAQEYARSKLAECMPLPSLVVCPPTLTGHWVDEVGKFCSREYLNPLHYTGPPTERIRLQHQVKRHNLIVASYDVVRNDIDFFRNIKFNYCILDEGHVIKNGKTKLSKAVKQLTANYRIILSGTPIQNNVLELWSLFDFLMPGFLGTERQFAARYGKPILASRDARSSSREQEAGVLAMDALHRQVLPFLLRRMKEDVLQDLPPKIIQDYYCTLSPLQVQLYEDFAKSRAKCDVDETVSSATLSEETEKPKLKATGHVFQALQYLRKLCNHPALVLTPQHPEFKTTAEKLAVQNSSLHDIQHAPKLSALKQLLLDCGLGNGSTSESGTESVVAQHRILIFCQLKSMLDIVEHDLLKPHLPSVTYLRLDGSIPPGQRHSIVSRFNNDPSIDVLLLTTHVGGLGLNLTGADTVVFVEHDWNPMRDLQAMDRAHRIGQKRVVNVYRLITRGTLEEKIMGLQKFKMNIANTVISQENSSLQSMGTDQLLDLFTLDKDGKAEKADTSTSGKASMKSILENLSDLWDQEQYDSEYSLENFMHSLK
UniProt Q9HB07: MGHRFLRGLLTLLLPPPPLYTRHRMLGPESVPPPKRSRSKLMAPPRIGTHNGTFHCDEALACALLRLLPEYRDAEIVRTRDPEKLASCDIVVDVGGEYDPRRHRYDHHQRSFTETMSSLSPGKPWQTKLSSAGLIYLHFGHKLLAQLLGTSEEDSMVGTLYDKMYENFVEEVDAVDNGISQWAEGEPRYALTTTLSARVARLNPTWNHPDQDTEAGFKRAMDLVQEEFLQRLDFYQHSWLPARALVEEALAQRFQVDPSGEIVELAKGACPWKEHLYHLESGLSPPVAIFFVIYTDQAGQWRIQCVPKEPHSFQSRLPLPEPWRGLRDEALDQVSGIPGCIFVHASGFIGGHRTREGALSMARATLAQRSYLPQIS
UniProt Q6P1X6: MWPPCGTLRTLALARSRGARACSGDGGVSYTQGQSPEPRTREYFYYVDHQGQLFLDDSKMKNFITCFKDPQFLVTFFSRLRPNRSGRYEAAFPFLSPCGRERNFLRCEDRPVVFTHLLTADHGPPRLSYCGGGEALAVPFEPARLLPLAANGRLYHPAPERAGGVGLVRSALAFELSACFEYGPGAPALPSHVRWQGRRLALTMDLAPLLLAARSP
UniProt Q5T6V5: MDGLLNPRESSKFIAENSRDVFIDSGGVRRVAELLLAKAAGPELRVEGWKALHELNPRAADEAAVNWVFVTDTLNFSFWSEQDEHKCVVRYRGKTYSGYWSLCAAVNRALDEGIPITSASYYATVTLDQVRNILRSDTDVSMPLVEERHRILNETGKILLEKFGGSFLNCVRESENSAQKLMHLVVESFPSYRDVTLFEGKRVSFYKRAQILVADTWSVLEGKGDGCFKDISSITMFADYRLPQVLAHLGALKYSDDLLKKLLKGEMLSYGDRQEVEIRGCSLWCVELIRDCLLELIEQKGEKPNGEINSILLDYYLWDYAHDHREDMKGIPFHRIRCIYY
UniProt Q8WVR3: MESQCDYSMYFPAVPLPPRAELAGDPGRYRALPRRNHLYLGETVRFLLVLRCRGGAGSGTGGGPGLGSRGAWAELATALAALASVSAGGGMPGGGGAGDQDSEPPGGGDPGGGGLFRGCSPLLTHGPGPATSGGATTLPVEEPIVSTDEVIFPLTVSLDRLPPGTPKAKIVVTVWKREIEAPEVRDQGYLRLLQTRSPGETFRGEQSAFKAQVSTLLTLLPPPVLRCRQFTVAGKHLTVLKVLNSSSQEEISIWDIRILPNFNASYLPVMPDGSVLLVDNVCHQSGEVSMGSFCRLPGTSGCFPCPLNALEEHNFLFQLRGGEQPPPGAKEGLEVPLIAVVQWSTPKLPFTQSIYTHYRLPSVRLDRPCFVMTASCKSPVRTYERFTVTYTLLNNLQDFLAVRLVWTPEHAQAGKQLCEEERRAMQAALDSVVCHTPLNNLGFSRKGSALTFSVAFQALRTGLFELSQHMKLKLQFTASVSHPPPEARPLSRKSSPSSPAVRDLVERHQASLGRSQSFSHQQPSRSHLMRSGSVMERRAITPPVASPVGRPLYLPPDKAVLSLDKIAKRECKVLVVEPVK
UniProt Q13895: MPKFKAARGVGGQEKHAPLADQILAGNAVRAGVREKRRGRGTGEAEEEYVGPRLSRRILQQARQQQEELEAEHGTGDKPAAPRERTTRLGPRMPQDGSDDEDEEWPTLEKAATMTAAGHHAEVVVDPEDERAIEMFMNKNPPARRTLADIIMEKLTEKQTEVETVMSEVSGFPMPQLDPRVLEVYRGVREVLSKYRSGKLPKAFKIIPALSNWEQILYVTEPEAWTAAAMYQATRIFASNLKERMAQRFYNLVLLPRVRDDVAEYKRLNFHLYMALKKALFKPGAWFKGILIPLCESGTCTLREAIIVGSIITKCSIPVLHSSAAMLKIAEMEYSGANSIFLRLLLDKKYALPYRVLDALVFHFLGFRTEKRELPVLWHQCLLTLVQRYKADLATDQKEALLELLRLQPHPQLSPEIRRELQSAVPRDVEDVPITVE
UniProt Q10588: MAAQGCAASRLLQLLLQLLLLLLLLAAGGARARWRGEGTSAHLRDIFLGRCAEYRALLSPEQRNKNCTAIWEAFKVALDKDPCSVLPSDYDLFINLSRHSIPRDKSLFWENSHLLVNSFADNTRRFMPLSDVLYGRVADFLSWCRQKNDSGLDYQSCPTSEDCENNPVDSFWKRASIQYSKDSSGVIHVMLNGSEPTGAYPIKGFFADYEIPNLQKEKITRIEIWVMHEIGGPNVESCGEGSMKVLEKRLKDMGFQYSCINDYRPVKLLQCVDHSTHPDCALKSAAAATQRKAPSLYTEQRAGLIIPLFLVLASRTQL
UniProt O00478: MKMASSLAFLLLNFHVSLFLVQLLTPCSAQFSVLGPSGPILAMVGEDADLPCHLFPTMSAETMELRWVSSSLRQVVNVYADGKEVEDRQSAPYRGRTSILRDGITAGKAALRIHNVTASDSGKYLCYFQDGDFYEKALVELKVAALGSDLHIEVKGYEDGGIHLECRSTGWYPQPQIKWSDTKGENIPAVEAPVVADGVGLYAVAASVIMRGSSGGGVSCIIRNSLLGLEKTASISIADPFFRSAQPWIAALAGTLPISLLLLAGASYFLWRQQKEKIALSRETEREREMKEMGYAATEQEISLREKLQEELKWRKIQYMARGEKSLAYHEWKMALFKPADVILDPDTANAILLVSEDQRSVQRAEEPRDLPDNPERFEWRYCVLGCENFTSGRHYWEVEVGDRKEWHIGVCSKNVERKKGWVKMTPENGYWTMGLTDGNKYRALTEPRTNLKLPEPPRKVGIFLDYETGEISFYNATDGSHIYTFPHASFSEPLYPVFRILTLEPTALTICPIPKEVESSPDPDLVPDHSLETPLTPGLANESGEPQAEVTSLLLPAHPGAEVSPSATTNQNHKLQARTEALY
UniProt Q7Z569: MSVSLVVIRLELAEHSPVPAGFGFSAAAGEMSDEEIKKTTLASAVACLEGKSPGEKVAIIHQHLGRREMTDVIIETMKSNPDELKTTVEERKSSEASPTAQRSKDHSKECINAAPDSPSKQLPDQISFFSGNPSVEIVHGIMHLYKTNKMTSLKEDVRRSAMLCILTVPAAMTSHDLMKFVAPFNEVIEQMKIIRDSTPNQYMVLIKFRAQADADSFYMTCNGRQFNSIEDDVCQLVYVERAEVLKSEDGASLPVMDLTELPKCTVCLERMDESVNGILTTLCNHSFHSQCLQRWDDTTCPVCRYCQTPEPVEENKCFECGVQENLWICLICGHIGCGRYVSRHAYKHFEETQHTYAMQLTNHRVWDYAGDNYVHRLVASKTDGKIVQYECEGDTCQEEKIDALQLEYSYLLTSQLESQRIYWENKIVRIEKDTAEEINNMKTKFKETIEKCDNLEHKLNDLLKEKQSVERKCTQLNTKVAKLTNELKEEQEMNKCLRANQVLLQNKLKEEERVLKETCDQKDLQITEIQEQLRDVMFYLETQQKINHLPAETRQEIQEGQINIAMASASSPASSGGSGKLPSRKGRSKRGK

Target	probe-labelled cysteine peptide fold change (10 µM)	probe-labelled cysteine peptide fold change (50 µM)
C11orf54_Q9H0W9_226_SHIMPAEFSSCPLNSDEEVNK (UniProt Q9H0W9)	0.0685	-0.13
C11orf54_Q9H0W9_149_CHDFQCALLANLFASEGQPGK (UniProt Q9H0W9)	-0.0371	-0.162
CAMK2D_Q13557_290_QETVDCLK (UniProt Q13557)	-0.0938	0.00941
BRD1_O95696_294_TDDDRWGHVVCALWIPEVGFANTVFIEPIDGVR (UniProt O95696)	-0.39	-0.178
CAMKV_Q8NCB2_181_EPCGTPEYLAPEVVGR (UniProt Q8NCB2)	0.076	-0.131
BTK_Q06187_464_LVQLYGVCTK (UniProt Q06187)	0.0992	0.233
C20orf27_Q9GZN8_131_EEILLACEGGTGTCVR (UniProt Q9GZN8)	0.246	0.228
C3orf38_Q5JPI3-2_12_SGLSFSEMEGCR (UniProt Q5JPI3)	-0.00138	0.302
CAMKK2_Q96RR4_397_IMCLHSK (UniProt Q96RR4)	-0.0325	-0.137
C2CD2L_O14523_385_RQLCPLTPGPGK (UniProt O14523)	-0.00642	-0.00325
BRAT1_Q6PJG6_289_ALSCLGPTHMGPLALGILK (UniProt Q6PJG6)	-0.0772	0.0172
C12orf4_Q9NQ89_350_DFATVCQECTDFHFPR (UniProt Q9NQ89)	-0.0183	-0.16
BTAF1_O14981_1579_LCNHPALVLTPQHPEFK (UniProt O14981)	-0.0222	0.104
BTN2A1_Q7KYR7_475_SHIYTCPR (UniProt Q7KYR7)	-0.00896	0.0957
C3_P01024_1637_DTWVEHWPEEDECQDEENQK (UniProt P01024)	0.059	-0.13
C12orf10_Q9HB07_56_IGTHNGTFHCDEALACALLR (UniProt Q9HB07)	-0.0316	-0.134
CABIN1_Q9Y6J0_1573_DVLLGSSIPWQQLQHMPAQGLFCER (UniProt Q9Y6J0)	0.104	-0.0632
BRD4_O60885_429_LMFSNCYK (UniProt O60885)	-0.0315	0.0408
C1orf112_Q9NSG2_559_EQTVHEVTTVGTAECR (UniProt Q9NSG2)	-0.141	0.031

Target	probe-labelled cysteine peptide fold change (10 µM)	probe-labelled cysteine peptide fold change (50 µM)
C8orf82_Q6P1X6_107_CEDRPVVFTHLLTADHGPPR (UniProt Q6P1X6)	-0.0558	-0.0561
C9orf64_Q5T6V5_281_GCSLWCVELIR (UniProt Q5T6V5)	0.497	0.233
C3_P01024_662_AELQCPQPAAR (UniProt P01024)	0.0947	-0.137
BTBD10_Q9BSF8_239_CPDGISIPELR (UniProt Q9BSF8)	0.19	0.0823
C7orf43_Q8WVR3_305_LPGTSGCFPCPLNALEEHNFLFQLR (UniProt Q8WVR3)	-0.113	0.0785
BRAT1_Q6PJG6_673_THCPYAVALPEVAPAQPLTEALR (UniProt Q6PJG6)	-0.151	-0.389
CAD_P27708_1296_CEAYLK (UniProt P27708)		0.0247
BYSL_Q13895_381_ELPVLWHQCLLTLVQR (UniProt Q13895)	0.0997	0.0773
BST1_Q10588_238_IEIWVMHEIGGPNVESCGEGSMK (UniProt Q10588)	-0.0571	-0.182
BTG3_Q14201_238_NKPYRPIPVTWVPPPGMHCDR (UniProt Q14201)	-0.313	-0.403
C12orf29_Q8N999_117_EFFWNVEEDFKPAPECWIPAK (UniProt Q8N999)	0.0764	-0.16
BRD9_Q9H8M2_101_EHCDTEGEADDFDPGK (UniProt Q9H8M2)	-0.0969	-0.0577
BTAF1_O14981_1522_IIQDYYCTLSPLQVQLYEDFAK (UniProt O14981)	-0.0687	-0.00295
BTN3A3_O00478_166_GYEDGGIHLECR (UniProt O00478)	0.0138	0.127
BRAP_Q7Z569_164_SAMLCILTVPAAMTSHDLMK (UniProt Q7Z569)	-0.176	-0.0114
CAMK2B_Q13554_561_ICDPGLTSFEPEALGNLVEGMDFHR (UniProt Q13554)	-0.106	-0.149
C12orf10_Q9HB07_56+62_IGTHNGTFHCDEALACALLR (UniProt Q9HB07)	0.0606	-0.0519
C5orf51_A6NDU8_244_YCADQQPENHEVDTSVSGAGCTTYKEPLDFR (UniProt A6NDU8)	0.0461	-0.233

Part of the list above, bar-delimited:
Target | probe-labelled cysteine peptide fold change (10 µM) | probe-labelled cysteine peptide fold change (50 µM)
C9orf64_Q5T6V5_281_GCSLWCVELIR (UniProt Q5T6V5) | 0.497 | 0.233
C3_P01024_662_AELQCPQPAAR (UniProt P01024) | 0.0947 | -0.137
C7orf43_Q8WVR3_305_LPGTSGCFPCPLNALEEHNFLFQLR (UniProt Q8WVR3) | -0.113 | 0.0785
CAD_P27708_1296_CEAYLK (UniProt P27708) |  | 0.0247
BYSL_Q13895_381_ELPVLWHQCLLTLVQR (UniProt Q13895) | 0.0997 | 0.0773
BST1_Q10588_238_IEIWVMHEIGGPNVESCGEGSMK (UniProt Q10588) | -0.0571 | -0.182
BTAF1_O14981_1522_IIQDYYCTLSPLQVQLYEDFAK (UniProt O14981) | -0.0687 | -0.00295
BTN3A3_O00478_166_GYEDGGIHLECR (UniProt O00478) | 0.0138 | 0.127
BRAP_Q7Z569_164_SAMLCILTVPAAMTSHDLMK (UniProt Q7Z569) | -0.176 | -0.0114
C12orf10_Q9HB07_56+62_IGTHNGTFHCDEALACALLR (UniProt Q9HB07) | 0.0606 | -0.0519
C5orf51_A6NDU8_244_YCADQQPENHEVDTSVSGAGCTTYKEPLDFR (UniProt A6NDU8) | 0.0461 | -0.233

Source: the supplement of paper PMC12067093, “Discovery and optimisation of a covalent ligand for TRIM25 and its application to targeted protein ubiquitination” (Chemical Science, 2025)
